Measured data: PubChem BioAssay AID504774 (Drosophila RNAi Screening Center, 2011)
In all, the deposit lists about 23,000 reagents; below is an unselected part of those that have a named target and a result. 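Values are quantile-normalised luminescence on an arbitrary scale; higher means more cells surviving MMS.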

Test: 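Fly genes whose loss alters survival after alkylation damage to DNA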 (primary screen)
Cell system: Drosophila Kc167 cells
Reagents: long dsRNA against Drosophila genes, about 0.25 µg dsRNA per well
Timing: about 6 days: 3 days knock-down, then 3 days with or without MMS
Treatment: methyl methanesulphonate 0.004% (w/v) for 3 days after knock-down
Read-out: 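Viability in wells given MMS, read as ATP luminescence, normalised by quantiles plate by plate and averaged across replicates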
Direction: mean viability with MMS and viability with MMS: higher = more surviving cells after MMS

no.	gene	DRSC id	mean viability with MMS	viability with MMS, replicate 1	viability with MMS, replicate 2
1	Sox15 (GeneID 36575)	DRSC07555	3.14e6	3.58e6	3.67e6
2	CG34136 (GeneID 4379892)	DRSC01833	3.71e6	4.14e6	4.26e6
3	dlp (GeneID 39596)	DRSC10281	3.30e6	3.72e6	3.74e6
4	dlp (GeneID 39596)	DRSC10472	3.36e6	3.80e6	3.75e6
5	CG31229 (GeneID 318636)	DRSC13309	3.39e6	3.74e6	3.90e6
6	CG1532 (GeneID 33076)	DRSC20516	3.68e6	3.96e6	4.42e6
7	Rbp1 (GeneID 41294)	DRSC16817	3.57e6	4.02e6	4.12e6
8	CG9577 (GeneID 33016)	DRSC20693	3.59e6	4.06e6	4.05e6
9	CG18764 (GeneID 59239)	DRSC15391	3.44e6	3.88e6	3.97e6
10	wtrw (GeneID 40931)	DRSC14241	3.46e6	3.97e6	3.86e6
11	wtrw (GeneID 40931)	DRSC15278	3.64e6	4.02e6	3.99e6
12	CG32432 (GeneID 40310)	DRSC11703	2.80e6	3.52e6	3.52e6
13	CG32432 (GeneID 40310)	DRSC11704	3.04e6	3.57e6	3.62e6
14	CG32432 (GeneID 40310)	DRSC11744	3.68e6	4.18e6	4.10e6
15	CG7214 (GeneID 34053)	DRSC03028	3.81e6	4.23e6	4.43e6
16	CG7214 (GeneID 34053)	DRSC21869	3.61e6	3.94e6	4.20e6
17	Rad17 (GeneID 41779)	DRSC16811	3.53e6	4.11e6	3.91e6
18	AgmNAT (GeneID 31512)	DRSC18072	3.59e6	4.04e6	4.11e6
19	CG7386 (GeneID 38719)	DRSC10832	3.56e6	4.07e6	4.01e6
20	okr (GeneID 33507)	DRSC00834	3.51e6	3.94e6	3.99e6
21	CG6665 (GeneID 36903)	DRSC07006	3.60e6	4.12e6	4.04e6
22	CG31007 (GeneID 318553)	DRSC14029	3.63e6	4.12e6	4.05e6
23	CG7755 (GeneID 36816)	DRSC07040	3.73e6	4.14e6	4.26e6
24	CG13858 (retired record) (GeneID 50058)	DRSC14708	3.65e6	4.18e6	4.09e6
25	CG13858 (retired record) (GeneID 50058)	DRSC14709	3.51e6	4.00e6	3.96e6
26	CG13858 (retired record) (GeneID 50058)	DRSC14710	3.50e6	4.00e6	3.94e6
27	CG13858 (retired record) (GeneID 50058)	DRSC14711	3.58e6	4.13e6	3.98e6
28	CG32773 (retired record) (GeneID 318204)	DRSC17330	3.49e6	3.88e6	4.05e6
29	CG8788 (GeneID 35932)	DRSC07267	3.55e6	4.08e6	3.96e6
30	Cyp4ad1 (GeneID 35821)	DRSC07369	3.65e6	4.06e6	4.23e6
31	CG9215 (GeneID 32494)	DRSC20171	3.49e6	4.00e6	3.91e6
32	CG9184 (GeneID 38152)	DRSC08636	3.60e6	3.86e6	4.02e6
33	CG9184 (GeneID 38152)	DRSC22184	3.45e6	3.96e6	3.90e6
34	Lip1 (GeneID 43973)	DRSC03364	3.83e6	4.00e6	4.71e6
35	CG4744 (GeneID 36485)	DRSC06887	3.50e6	3.97e6	3.93e6
36	Eig71Ek (GeneID 39712)	DRSC11158	3.67e6	4.19e6	4.09e6
37	CG3091 (GeneID 31210)	DRSC18274	3.50e6	3.83e6	4.12e6
38	CG34347 (GeneID 5740668)	DRSC14047	3.51e6	4.04e6	3.92e6
39	CG34347 (GeneID 5740668)	DRSC14305	3.32e6	3.74e6	3.67e6
40	CG34347 (GeneID 5740668)	DRSC15104	3.20e6	3.60e6	3.60e6
41	CG34347 (GeneID 5740668)	DRSC15105	7.24e5	3.42e6	3.42e6
42	CG34347 (GeneID 5740668)	DRSC23044	3.37e6	3.90e6	3.78e6
43	CG18628 (GeneID 39205)	DRSC10328	3.69e6	4.26e6	4.04e6
44	ect (GeneID 44135)	DRSC10675	3.67e6	4.04e6	3.91e6
45	ect (GeneID 44135)	DRSC11343	3.48e6	3.83e6	4.06e6
46	ect (GeneID 44135)	DRSC22357	3.44e6	3.93e6	3.92e6
47	CG1622 (GeneID 32282)	DRSC19745	3.59e6	4.11e6	4.00e6
48	CG31269 (GeneID 318653)	DRSC15744	3.67e6	4.43e6	3.92e6
49	ProRS-m (GeneID 38331)	DRSC08261	3.44e6	3.93e6	3.88e6
50	CG9416 (GeneID 37223)	DRSC07339	3.71e6	4.15e6	4.21e6
51	nsl1 (GeneID 41911)	DRSC15625	3.37e6	3.77e6	3.89e6

Next part (12 carried over from the part before).
no.	gene	DRSC id	mean viability with MMS	viability with MMS, replicate 1	viability with MMS, replicate 2
40	CG34347 (GeneID 5740668)	DRSC15104	3.20e6	3.60e6	3.60e6
41	CG34347 (GeneID 5740668)	DRSC15105	7.24e5	3.42e6	3.42e6
42	CG34347 (GeneID 5740668)	DRSC23044	3.37e6	3.90e6	3.78e6
43	CG18628 (GeneID 39205)	DRSC10328	3.69e6	4.26e6	4.04e6
44	ect (GeneID 44135)	DRSC10675	3.67e6	4.04e6	3.91e6
45	ect (GeneID 44135)	DRSC11343	3.48e6	3.83e6	4.06e6
46	ect (GeneID 44135)	DRSC22357	3.44e6	3.93e6	3.92e6
47	CG1622 (GeneID 32282)	DRSC19745	3.59e6	4.11e6	4.00e6
48	CG31269 (GeneID 318653)	DRSC15744	3.67e6	4.43e6	3.92e6
49	ProRS-m (GeneID 38331)	DRSC08261	3.44e6	3.93e6	3.88e6
50	CG9416 (GeneID 37223)	DRSC07339	3.71e6	4.15e6	4.21e6
51	nsl1 (GeneID 41911)	DRSC15625	3.37e6	3.77e6	3.89e6
52	Osi12 (GeneID 40766)	DRSC12177	3.52e6	3.95e6	4.05e6
53	prd (GeneID 34629)	DRSC03597	3.73e6	4.05e6	4.45e6
54	CG5704 (GeneID 48613)	DRSC08572	3.55e6	4.07e6	3.98e6
55	Muc11A (GeneID 32174)	DRSC19498	3.64e6	4.10e6	4.13e6
56	beat-VII (GeneID 43213)	DRSC13780	3.40e6	3.79e6	3.90e6
57	beat-VII (GeneID 43213)	DRSC14743	3.60e6	4.14e6	4.02e6
58	beat-VII (GeneID 43213)	DRSC14744	3.81e6	4.28e6	4.35e6
59	beat-VII (GeneID 43213)	DRSC22825	3.42e6	3.94e6	3.90e6
60	CG3246 (GeneID 33564)	DRSC00584	3.55e6	4.12e6	3.92e6
61	rhea (GeneID 38978)	DRSC11300	3.54e6	3.94e6	4.10e6
62	NitFhit (GeneID 38029)	DRSC08680	3.56e6	4.07e6	3.98e6
63	CG15771 (GeneID 31500)	DRSC18077	3.47e6	4.06e6	3.83e6
64	CG2698 (GeneID 40945)	DRSC15447	3.45e6	3.91e6	3.93e6
65	CG1468 (GeneID 31920)	DRSC17946	3.50e6	3.93e6	3.95e6
66	neb (GeneID 35293)	DRSC03577	3.40e6	4.01e6	3.63e6
67	Cln3 (GeneID 39981)	DRSC10520	3.52e6	3.96e6	4.02e6
68	CG8089 (GeneID 36679)	DRSC07074	3.56e6	4.15e6	3.96e6
69	Cyp6t3 (GeneID 36318)	DRSC07388	3.58e6	3.83e6	4.10e6
70	CG1907 (GeneID 43483)	DRSC15399	3.74e6	4.22e6	4.22e6
71	Atg3 (GeneID 40044)	DRSC10736	3.57e6	4.00e6	4.10e6
72	Atg3 (GeneID 40044)	DRSC21758	3.72e6	4.15e6	4.21e6
73	PK2-R1 (GeneID 41639)	DRSC16447	3.61e6	4.26e6	3.96e6
74	Sr-CII (GeneID 44219)	DRSC07557	3.62e6	3.99e6	4.29e6
75	Gr58c (GeneID 37501)	DRSC04136	3.59e6	4.13e6	4.01e6
76	CG4982 (GeneID 39794)	DRSC10465	1.71e6	3.84e6	
77	rho-6 (GeneID 34640)	DRSC02588	3.76e6	4.15e6	4.24e6
78	CG10222 (GeneID 39504)	DRSC09714	3.49e6	3.94e6	3.96e6
79	CG17803 (GeneID 42141)	DRSC15275	3.74e6	4.10e6	4.23e6
80	CG17803 (GeneID 42141)	DRSC22811	3.21e6	3.66e6	3.87e6
81	CG6769 (GeneID 32770)	DRSC20006	3.72e6	4.22e6	4.28e6
82	MESK2 (GeneID 37451)	DRSC04258	3.52e6	4.02e6	3.95e6
83	Ntan1 (GeneID 37147)	DRSC07546	3.61e6	4.17e6	4.00e6
84	aurB (GeneID 34504)	DRSC03548	3.31e6	3.70e6	3.75e6
85	aurB (GeneID 34504)	DRSC23324	3.27e6	3.78e6	3.64e6
86	alpha-Spec (GeneID 38231)	DRSC08704	3.55e6	4.01e6	4.04e6
87	CG7465 (GeneID 38553)	DRSC08592	3.81e6	4.28e6	4.33e6
88	CG7465 (GeneID 38553)	DRSC22320	3.59e6	4.05e6	4.06e6
